This assay has as its target T1, Flag-CPNE5 (mouse CPNE5 cDNA with a Flag tag in pcDNA3.1(+)) (mouse) (UniProt Q8JZW4).
T1 sequence: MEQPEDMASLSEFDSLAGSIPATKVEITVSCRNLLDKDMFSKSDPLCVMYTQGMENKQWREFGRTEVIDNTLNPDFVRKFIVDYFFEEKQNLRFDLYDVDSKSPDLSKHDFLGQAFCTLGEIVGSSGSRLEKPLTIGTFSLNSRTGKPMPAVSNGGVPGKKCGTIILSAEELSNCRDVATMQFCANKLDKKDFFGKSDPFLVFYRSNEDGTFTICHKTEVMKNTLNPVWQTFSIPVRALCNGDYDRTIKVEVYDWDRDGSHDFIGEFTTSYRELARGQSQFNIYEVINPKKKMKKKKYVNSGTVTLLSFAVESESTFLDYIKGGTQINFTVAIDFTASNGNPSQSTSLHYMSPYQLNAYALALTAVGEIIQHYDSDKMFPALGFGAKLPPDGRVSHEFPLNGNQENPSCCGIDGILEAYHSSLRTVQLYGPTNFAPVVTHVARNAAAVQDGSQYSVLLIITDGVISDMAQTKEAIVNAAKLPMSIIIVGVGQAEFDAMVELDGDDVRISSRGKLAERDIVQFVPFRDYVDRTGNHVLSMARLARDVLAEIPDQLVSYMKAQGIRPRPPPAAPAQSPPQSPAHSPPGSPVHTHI
In words: affinity purification with mass spectrometry; anti-Flag IP from NMCMs transfected with Flag-Cpne5; SDS-PAGE, Coomassie, bands differing from the control analysed by LC-ESI-MS.

These are yes or no findings as the source states them, for the method shown. Binding seen in cells or lysates may run through a third protein. These calls come from enrichment with a bait or labelling near it, and not all partners need be listed. Where a sequence is shown, tags or fusion partners need not be part of it.

B1: FAS receptor (receptor, UniProt P25446 22-327)
chain: QGTNSISESLKLRRRVRETDKNCSEGLYQGGPFCCQPCQPGKKKVEDCKMNGGTPTCAPCTEGKEYMDKNHYADKCRRCTLCDEEHGLEVETNCTLTQNTKCKCKPDFYCDSPGCEHCVRCASCEHGTLEPCTATSNTNCRKQSPRNRLWLLTILVLLIPLVFIYRKYRKRKCWKRRQDDPESRTSSRETIPMNASNLSLSKYIPRIAEDMTIQEAKKFARENNIKEGKIDEIMHDSIQDTAEQKVQLLLCWYQSHGKSDAYQDLIKGLKKAECRRTLDKFQDMVQKDLGKSTPDTGNENEGQCLE
Consider B1, for which the binding entry is “binds”.

The values above are taken from publication PMC12398889.
